Data taken from patent US20250312496A1, “PROSTATE SPECIFIC MEMBRANE ANTIGEN (PSMA) LIGANDS” (Deutsches Krebsforschungszentrum Stiftung des öffentlichen …, priority 2022, published 2025).
At least one peptide structure holds a part that was inferred or is arguable (an end, a ring closure or a residue). Where a SMILES comes first, the peptide text is derived from it. [ ]: non-standard residue; d: D form. The star is where a group is joined. DOTA = O=C(O)CN1CCN(CC(=O)O)CCN(CC(=O)*)CCN(CC(=O)O)CC1; EuK = O=C(O)CC[C@H](NC(=O)N[C@@H](CCCCN*)C(=O)O)C(=O)O; 2Nal = N[C@@H](Cc1ccc2ccccc2c1)C(=O)O; Trx = NC[C@H]1CC[C@H](C(=O)O)CC1

System: PSMA+ LNCaP cells
Test: Cell surface binding and internalization of 177Lu-labeled compounds
Assay type: cell-based
Details: 177Lu-labeled compound, 45 min, n = 3; for Internalization / Surface: 7.5 pmol precursor per 10^5 cells (30 nM), 37° C., without blocking; for Internalization Block / Surface Block: 7.5 pmol precursor per 10^5 cells, with blocking by 500 μM 2-PMPA

Row | Compound | Internalization [% AR/10^5 cells] | Surface [% AR/10^5 cells] | Internalization Block [% AR/10^5 cells] | Surface Block [% AR/10^5 cells]
1 | C[C@H](NC(=O)CN1CCN(CC(=O)O)CCN(CC(=O)O)CCN(CC(=O)O)CC1)C(=O)N[C@@H](C)C(=O)N[C@@H](C)C(=O)N[C@@H](C)C(=O)N[C@@H](C)C(=O)NC[C@H]1CC[C@H](C(=O)N[C@@H](Cc2ccc3ccccc3c2)C(=O)NCCCC[C@H](NC(=O)N[C@@H](CCC(=O)O)C(=O)O)C(=O)O)CC1 [Ala-5, DOTA-Ala5-Chx-2-NaI-Lys-urea-Glu] ({DOTA}-AAAAA[Trx][2Nal]-EuK) | 0.07 ± 0.01 | 0.41 ± 0.05 | 0.01 ± 0.01 | 0.04 ± 0.02
2 | O=C(O)CC[C@H](NC(=O)N[C@@H](CCCCNC(=O)[C@H](Cc1ccc2ccccc2c1)NC(=O)[C@H]1CC[C@H](CNC(=O)CNC(=O)CNC(=O)CNC(=O)CNC(=O)CNC(=O)CN2CCN(CC(=O)O)CCN(CC(=O)O)CCN(CC(=O)O)CC2)CC1)C(=O)O)C(=O)O [Gly-5, DOTA-Gly5-Chx-2-NaI-Lys-urea-Glu] ({DOTA}-GGGGG[Trx][2Nal]-EuK) | 0.03 ± 0.01 | 0.11 ± 0.01 | 0.01 ± 0.01 | 0.02 ± 0.00
